The exact form of at least one protein or probe is not confirmed. For part of these data: At least one verdict was read from the data and is not stated in words by the source.
What was measured:
[1] = target: T1, HHoB (UniProt A0A1Q9NRY6); assay: MST; conditions: 1 mM MgCl2, value not in text
[2] = target: T1, HHoB; assay: cryo-EM
[3] = target: T1, HHoB; assay: EMSA
[4] = target: T2, HHoB mut1 (UniProt A0A1Q9NRY6); assay: cryo-EM; conditions: 1 mM MgCl2, open and closed classes, smaller opening
[5] = target: T3, HHoB mut2 (UniProt A0A1Q9NRY6); assay: cryo-EM; conditions: 100 mM Mg2+, less ordered hypernucleosomes
[6] = system: HHoG; assay: EMSA
[7] = target: T2, HHoB mut1; assay: EMSA; conditions: similar to wild type
[8] = target: HMfB (Methanothermus fervidus (M. fervidus)) (UniProt P19267); assay: EMSA; conditions: single shifted band
[9] = target: T3, HHoB mut2; assay: EMSA; conditions: similar to wild type
[10] = system: HHoF; assay: EMSA
[11] = 10 mM MgCl2, single cooperative shift
[12] = no Mg2+, ladder-like stepwise shifts

The chains behind the UniProt entries cited, without tags or fusion partners. Where a name states a change or a piece, a line headed by the entry shows the natural chain unless it says otherwise.
UniProt P19267: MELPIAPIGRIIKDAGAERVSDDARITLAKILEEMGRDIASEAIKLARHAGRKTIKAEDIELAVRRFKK

Measured: binding result

AGGGTCACATGGGTGTTTGGCACTACCGACAGT (double strand) [33 bp random DNA]
binds: [1]

ACCAGTTTTATTAGATCAACATATCAAGAAGTTACTAAAATCCGTTAAAAAAATAACAACACCCTGAATTTGACCGTAGTGATTAAGCTCAGTAATGGAATAAAGGAGAAAAAAATTTTGAAATTTAAGAAGAAGATTTATTTTTGAAACAGCGACTACGAAGAAAAAAATTTAAAAGTCAAGCTATTTTATTTGGAAGCAGACAAAGTAACGTCTGTTTCTTTTATTGTTCGACGACCGCTGTTTCGTGCAATTTCTACTGAATATCTGGCTACTTCGAGACCACGCTCTCCTAATAAATCGTTCAGTGCTTTAATTGCACCACTTGATACACGGAAAGCGCCGGCTTCACGGATTAATTTCTCTACTTTTGCAGAAGCGAAAGCTTGTCCTTTAGATCGGCTAGATCTACGTCGACTT (double strand) [HeimC3_31310 420 bp]
binds: [2]; 100 mM Mg2+, hypernucleosome | [3]; comparable to Widom601, more shifted bands

CTGGAGAATCCCGGTGCCGAGGCCGCTCAATTGGTCGTAGACAGCTCTAGCACCGCTTAAACGCACGTACGCGCTGTCCCCCGCGTTTTAACCGCCAAGGGGATTACTCCCTAGTCTCCAGGCACGTGTCAGATATATACATCCTGT (double strand) [Widom601 147 bp]
binds: [4] | [5] | [2]; 0 Mg2+, open nucleosome, EMD-53390 | [2]; 1 mM MgCl2, closed nucleosome | [2]; 1 mM MgCl2, open nucleosome | [2]; 100 mM Mg2+, closed hypernucleosome, 2.6 A | [6]; [11] | [6]; [12] | [7] | [8] | [9] | [10]; [11] | [10]; [12] | [3]; [11] | [3]; [12]

Source: publication doi:10.1101/2025.05.24.653377
